Values from PubChem BioAssay AID1259308 (NCATS, 2017)

- Aim: 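Knock-downs that increase output of a recombinant reporter protein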 (primary screen)
- System: human HEK293 embryonic kidney cells stably expressing firefly luciferase (HEK-CMV-Luc2-Hygro)
- Knock-down reagent: single siRNA against human genes, 0.8 pmol siRNA per well
- Timing: 72 h
- Measured: 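Luciferase light (ONE-Glo) measured on one replicate plate set and viability (CellTiter-Glo) on the other, scaled to a negative control siRNA, with robust z-scores and luciferase per cell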
- Scale: total luciferase, z-score and total luciferase, % of control: higher = more reporter protein produced
- Hit rule: 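Active when the median/MAD z-score for overall luciferase is greater than 3; a gene was taken forward for validation with new siRNAs if at least two of its three siRNAs passed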
- Meaning of the calls: active = raised luciferase; inactive = no rise
Here is one part, drawn at random, of about 59,000 reagents. About 1,510 of all reagents (2.6%) were called active. 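Calls use total luciferase alone and ignore viability, so some active siRNAs may act by altering cell number.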 Reagents against one gene are numbered here. Not all columns of the deposit are shown.

S100A7 (S100 calcium binding protein A7) #1 — total luciferase, z-score: 0.386; total luciferase, % of control: 89.6; Outcome: inactive
S100A7 (S100 calcium binding protein A7) #2 — total luciferase, z-score: 2.19; total luciferase, % of control: 126; Outcome: inactive
S100A7 (S100 calcium binding protein A7) #3 — total luciferase, z-score: -2.2; total luciferase, % of control: 38.2; Outcome: inactive
SPATA6 (spermatogenesis associated 6) #1 — total luciferase, z-score: -0.758; total luciferase, % of control: 66.8; Outcome: inactive
SPATA6 (spermatogenesis associated 6) #2 — total luciferase, z-score: 0.362; total luciferase, % of control: 89.1; Outcome: inactive
SPATA6 (spermatogenesis associated 6) #3 — total luciferase, z-score: 0.542; total luciferase, % of control: 92.7; Outcome: inactive
CHEK2P2 (CHEK2 pseudogene 2) #1 — total luciferase, z-score: -1.95; total luciferase, % of control: 43.1; Outcome: inactive
CHEK2P2 (CHEK2 pseudogene 2) #2 — total luciferase, z-score: 1.08; total luciferase, % of control: 103; Outcome: inactive
CHEK2P2 (CHEK2 pseudogene 2) #3 — total luciferase, z-score: -0.388; total luciferase, % of control: 74.2; Outcome: inactive
DGKH (diacylglycerol kinase eta) #1 — total luciferase, z-score: 0.912; total luciferase, % of control: 100; Outcome: inactive
DGKH (diacylglycerol kinase eta) #2 — total luciferase, z-score: 2.07; total luciferase, % of control: 123; Outcome: inactive
DGKH (diacylglycerol kinase eta) #3 — total luciferase, z-score: 0.465; total luciferase, % of control: 91.1; Outcome: inactive
CIRSR (corepressor of RBPJ and splicing regulator) #1 — total luciferase, z-score: -0.152; total luciferase, % of control: 78.9; Outcome: inactive
CIRSR (corepressor of RBPJ and splicing regulator) #2 — total luciferase, z-score: -0.0621; total luciferase, % of control: 80.7; Outcome: inactive
CIRSR (corepressor of RBPJ and splicing regulator) #3 — total luciferase, z-score: -0.173; total luciferase, % of control: 78.5; Outcome: inactive
CHAC1 (ChaC glutathione specific gamma-glutamylcyclotransferase 1) #1 — total luciferase, z-score: -0.845; total luciferase, % of control: 65.1; Outcome: inactive
CHAC1 (ChaC glutathione specific gamma-glutamylcyclotransferase 1) #2 — total luciferase, z-score: -0.649; total luciferase, % of control: 69; Outcome: inactive
CHAC1 (ChaC glutathione specific gamma-glutamylcyclotransferase 1) #3 — total luciferase, z-score: -1.14; total luciferase, % of control: 59.2; Outcome: inactive
C1orf122 (chromosome 1 open reading frame 122) #1 — total luciferase, z-score: -0.138; total luciferase, % of control: 79.1; Outcome: inactive
C1orf122 (chromosome 1 open reading frame 122) #2 — total luciferase, z-score: -1.27; total luciferase, % of control: 56.6; Outcome: inactive
C1orf122 (chromosome 1 open reading frame 122) #3 — total luciferase, z-score: 0.592; total luciferase, % of control: 93.7; Outcome: inactive
MED19 (mediator complex subunit 19) #1 — total luciferase, z-score: 0.925; total luciferase, % of control: 100; Outcome: inactive
MED19 (mediator complex subunit 19) #2 — total luciferase, z-score: -1.95; total luciferase, % of control: 43.1; Outcome: inactive
MED19 (mediator complex subunit 19) #3 — total luciferase, z-score: -0.121; total luciferase, % of control: 79.5; Outcome: inactive
KL (klotho) #1 — total luciferase, z-score: -0.231; total luciferase, % of control: 77.3; Outcome: inactive
KL (klotho) #2 — total luciferase, z-score: -0.271; total luciferase, % of control: 76.5; Outcome: inactive
KL (klotho) #3 — total luciferase, z-score: -0.325; total luciferase, % of control: 75.4; Outcome: inactive
PLPPR4 (phospholipid phosphatase related 4) #1 — total luciferase, z-score: 2.44; total luciferase, % of control: 130; Outcome: inactive
PLPPR4 (phospholipid phosphatase related 4) #2 — total luciferase, z-score: -2.05; total luciferase, % of control: 41; Outcome: inactive
PLPPR4 (phospholipid phosphatase related 4) #3 — total luciferase, z-score: -0.173; total luciferase, % of control: 78.4; Outcome: inactive
TRIM22 (tripartite motif containing 22) #1 — total luciferase, z-score: 2.74; total luciferase, % of control: 136; Outcome: inactive
TRIM22 (tripartite motif containing 22) #2 — total luciferase, z-score: 1.57; total luciferase, % of control: 113; Outcome: inactive
TRIM22 (tripartite motif containing 22) #3 — total luciferase, z-score: 0.635; total luciferase, % of control: 94.5; Outcome: inactive

Laid out differently: entries from further up.
gene | siRNA no. | total luciferase, z-score | total luciferase, % of control | Outcome
DGKH (diacylglycerol kinase eta) | 1 | 0.912 | 100 | inactive
DGKH (diacylglycerol kinase eta) | 2 | 2.07 | 123 | inactive
DGKH (diacylglycerol kinase eta) | 3 | 0.465 | 91.1 | inactive
CIRSR (corepressor of RBPJ and splicing regulator) | 1 | -0.152 | 78.9 | inactive
